Screening data, single-dose tests

The chains behind the UniProt entries cited, without tags or fusion partners. Residues count along the entry.
UniProt P9WFT3, whole entry: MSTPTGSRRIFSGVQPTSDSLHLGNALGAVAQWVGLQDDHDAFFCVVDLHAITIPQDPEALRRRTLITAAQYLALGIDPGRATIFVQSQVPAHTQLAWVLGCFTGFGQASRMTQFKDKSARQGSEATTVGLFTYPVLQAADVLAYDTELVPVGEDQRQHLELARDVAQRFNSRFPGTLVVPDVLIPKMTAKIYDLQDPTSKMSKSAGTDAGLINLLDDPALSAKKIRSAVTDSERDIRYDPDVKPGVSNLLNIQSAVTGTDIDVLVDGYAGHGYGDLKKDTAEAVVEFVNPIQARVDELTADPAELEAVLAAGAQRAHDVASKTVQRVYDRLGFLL
UniProt I6X8D2, whole entry: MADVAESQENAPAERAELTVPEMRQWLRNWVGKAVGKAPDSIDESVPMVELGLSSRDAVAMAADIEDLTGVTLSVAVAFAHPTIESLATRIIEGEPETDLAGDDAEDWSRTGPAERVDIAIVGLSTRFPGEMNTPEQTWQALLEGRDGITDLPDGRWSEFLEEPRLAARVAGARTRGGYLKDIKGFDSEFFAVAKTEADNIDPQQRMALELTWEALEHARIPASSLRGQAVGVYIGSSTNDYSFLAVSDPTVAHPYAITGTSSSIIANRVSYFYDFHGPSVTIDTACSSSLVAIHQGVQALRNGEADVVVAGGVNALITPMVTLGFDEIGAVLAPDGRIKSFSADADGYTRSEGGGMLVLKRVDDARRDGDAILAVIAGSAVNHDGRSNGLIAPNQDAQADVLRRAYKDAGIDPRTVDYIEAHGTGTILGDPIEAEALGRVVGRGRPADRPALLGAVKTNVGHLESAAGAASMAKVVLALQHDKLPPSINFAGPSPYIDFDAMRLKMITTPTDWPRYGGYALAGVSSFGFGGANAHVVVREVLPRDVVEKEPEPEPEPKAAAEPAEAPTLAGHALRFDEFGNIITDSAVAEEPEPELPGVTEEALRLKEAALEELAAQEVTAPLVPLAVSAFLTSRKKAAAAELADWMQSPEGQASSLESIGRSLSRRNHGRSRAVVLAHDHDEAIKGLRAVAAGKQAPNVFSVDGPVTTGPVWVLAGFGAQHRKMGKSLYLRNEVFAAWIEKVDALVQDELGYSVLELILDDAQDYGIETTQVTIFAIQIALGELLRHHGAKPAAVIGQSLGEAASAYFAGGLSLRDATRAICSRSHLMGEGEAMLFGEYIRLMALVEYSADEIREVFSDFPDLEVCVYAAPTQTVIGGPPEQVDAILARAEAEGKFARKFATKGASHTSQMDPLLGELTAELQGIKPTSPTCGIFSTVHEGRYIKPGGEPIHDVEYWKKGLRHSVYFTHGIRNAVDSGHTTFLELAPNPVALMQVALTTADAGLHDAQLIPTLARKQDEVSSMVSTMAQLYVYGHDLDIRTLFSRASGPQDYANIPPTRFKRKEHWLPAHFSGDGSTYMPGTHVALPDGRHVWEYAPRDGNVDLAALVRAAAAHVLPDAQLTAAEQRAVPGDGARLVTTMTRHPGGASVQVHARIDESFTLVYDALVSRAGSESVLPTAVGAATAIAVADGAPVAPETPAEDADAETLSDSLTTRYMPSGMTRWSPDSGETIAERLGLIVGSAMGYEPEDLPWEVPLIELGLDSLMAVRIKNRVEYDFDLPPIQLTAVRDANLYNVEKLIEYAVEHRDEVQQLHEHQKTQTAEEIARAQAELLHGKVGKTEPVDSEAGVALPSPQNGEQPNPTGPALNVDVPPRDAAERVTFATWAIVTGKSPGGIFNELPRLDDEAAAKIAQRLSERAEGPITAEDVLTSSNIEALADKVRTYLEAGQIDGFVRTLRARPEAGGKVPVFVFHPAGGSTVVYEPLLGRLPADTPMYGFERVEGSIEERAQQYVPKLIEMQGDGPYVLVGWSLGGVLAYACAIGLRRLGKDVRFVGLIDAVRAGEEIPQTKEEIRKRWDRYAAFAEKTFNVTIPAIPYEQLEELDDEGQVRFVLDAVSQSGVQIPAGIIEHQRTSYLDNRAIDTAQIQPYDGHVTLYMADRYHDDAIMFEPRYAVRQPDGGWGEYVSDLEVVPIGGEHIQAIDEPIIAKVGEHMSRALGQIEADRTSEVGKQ
UniProt Q4DA54, 1-478: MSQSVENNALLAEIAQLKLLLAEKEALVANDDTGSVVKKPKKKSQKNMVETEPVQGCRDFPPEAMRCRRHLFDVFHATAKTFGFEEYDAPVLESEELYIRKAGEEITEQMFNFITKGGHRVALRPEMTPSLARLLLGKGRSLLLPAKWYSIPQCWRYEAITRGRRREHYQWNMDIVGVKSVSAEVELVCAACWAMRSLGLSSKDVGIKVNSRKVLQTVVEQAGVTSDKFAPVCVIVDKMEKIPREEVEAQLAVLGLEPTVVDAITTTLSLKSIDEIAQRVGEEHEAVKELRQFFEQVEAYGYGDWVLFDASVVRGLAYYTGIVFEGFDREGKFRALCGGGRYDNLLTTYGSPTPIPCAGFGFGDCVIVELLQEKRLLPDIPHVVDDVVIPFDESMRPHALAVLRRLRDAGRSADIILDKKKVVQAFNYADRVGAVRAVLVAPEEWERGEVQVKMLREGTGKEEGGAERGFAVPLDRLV

Data taken from ChEMBL document CHEMBL3988442, “University of Dundee, Small-Polar-MMV Screening Library” (2021).

A: 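Tryptophan-tRNA ligase, Mycobacterium tuberculosis (UniProt P9WFT3). Enzyme assay of tryptophanyl-tRNA synthetase; the read-out is not stated. Tested at 10 µM. Direction is not recorded; retested compounds ran higher, which suggests that high means inhibition. Size under these conditions: about 65,000 compounds, about 64 of them at 50% or above in at least one test.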
B: 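Cell assay of Leishmania donovani living inside macrophages; the read-out is not stated. Tested at 30 µM. The record gives no direction; compounds that gave an IC50 in retests scored well above the rest, so higher reads as stronger inhibition. About 69,000 compounds were tested under these conditions; 1.5% (about 1,000) showed 50% or more at least once.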
C: 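Enzyme assay of the thioesterase domain of polyketide synthase 13; the read-out is not stated. Target: Polyketide synthase Pks13, Mycobacterium tuberculosis (UniProt I6X8D2). Concentration: 30 µM. The record gives no direction; the compounds picked for IC50 retests had high values, so higher reads as stronger inhibition. Size under these conditions: about 67,000 compounds, about 300 of them at 50% or above in at least one test.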
D: 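Enzyme assay of histidyl-tRNA synthetase; the read-out is not stated. Target: Histidine-tRNA ligase, Trypanosoma cruzi CL Brener (UniProt Q4DA54). Tested at 30 µM. The record gives no direction; compounds that gave an IC50 in retests scored well above the rest, so higher reads as stronger inhibition. Size under these conditions: about 69,000 compounds, about 31 of them at 50% or above in at least one test.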

The filed quantity is “Percent Effect” (%).
How 0% and 100% were set is not recorded. Most values in the screen are low, and negative values occur.
Compounds were drawn at random from those tested, without regard to their results.
Two or more numbers in one place are separate tests of the same structure; such repeats can differ widely.
A dash means the value is not listed here; it may have been measured.

compound	A	B	C	D
Cc1ccsc1C(=O)N1CC(C(=O)N2CCCC2)C2(CCOCC2)C1 (centres undefined)	-1.992	-3.408 & 4.774	-15.72	5.376
O=C(c1ccc(=O)[nH]c1)N1CCCC2(C=Cc3ccccc3O2)CC1 (centres undefined)	3.374	42.34	-28.27	7.447
COc1cc(C(=O)Nc2nc(C)no2)ccc1OC(F)F	-6.074	-27.38	-5.763	6.286
COCCCOC1CN(C(=O)c2[nH]nc3c2CCCC3)C1	-4.495	41.69	3.255	2.439
CCN(CC)c1ccc2ccc(C(=O)N3CCCCO3)cn12.O=C(O)C(F)(F)F	-	27.79	-	-
Cc1cnn(CC2CCCCN2CCCS(C)(=O)=O)c1 (centres undefined)	-1.013	44.95	-9.046	6.215
c1cnnc(N2CCCC2CNc2nc3ccccc3o2)c1 (centres undefined)	2.047	10.69	-44.81	2.632
COc1ccc(S(=O)(=O)Nc2cccnc2-n2cncn2)cc1C	4.866	9.242	-7.324	6.667
Cc1c(C(=O)NCC2CCN(C)C2)n(C)c2c(C)cccc12 (centres undefined)	-2.673	-15.96	16.86	16.83
CC1c2ncc(COCC3CCOCC3)n2CCN1S(C)(=O)=O (centres undefined)	-1.058	12.7	-10.82	6.952
CSc1ncnc(NCc2ccco2)c1C#N	-0.9167	3.153	-10.88	4.663
Cn1nc(CN2CCCC2)c2c1CN(CC1CC1)CC2.O=C(O)C(F)(F)F.O=C(O)C(F)(F)F	-	23.64	-	-
O=C(O)C(F)(F)F.[H][C@@]12CCN(S(=O)(=O)c3cccc(C)c3)C[C@]1([H])[C@@H](CN(C)C)OC2	-	18.46	-	-
CCCNC(=O)C[C@@H]1CCN(C(=O)c2cccnc2)C[C@@H]1CC	14.38	-8.231	2.733	6.931
O=C(Nc1ccc(Br)cc1F)c1ccc(N2CCOCC2)nn1	-6.345	-1.126	-13.78	4.762
CS(=O)(=O)N1CCOCC2(CCN(c3cnccn3)CC2)C1	-5.478	13.96	-5.848	7.216
O=C(O)CCCC(=O)NCC1(O)CCN(c2ccnc3cccnc23)C1 (centres undefined)	-6.358	24.4	17.03	7.576
COC(C)(C)CC(C)NCc1cn2ccccc2n1 (centres undefined)	4.9	23.68	1.526	10.1
c1ccc2c(c1)CC(Cc1cc(N3CCCC3)cnn1)CCO2 (centres undefined)	0.2564	24.26	-12.85	11.11
CCN1C[C@H]2N(c3ncccn3)CCC[C@@]2(C(=O)NCC2CC2)C1	-	-	-6.222	8.466
CCC1CN(C(=O)c2ccc(O)cn2)CCC(=O)N1Cc1ccccc1 (centres undefined)	-5.253	20.41	-9.967	7.143
O=C(O)C(F)(F)F.[H][C@@]12CCN(Cc3ccc(F)cc3)[C@]1([H])CC[C@H](COCC1CCOCC1)O2	-	32.57	-	-
CC(C)c1nnc2n1CCN(C(=O)CN1CCc3sccc3C1)C2	-3.774	20.85	-7.478	1.901
CC(=O)N1CCN(C(C)c2nnc(CC(C)C)o2)CC1 (centres undefined)	-2.993	-14.59	-12.11	7.182
CN(C)CCO[C@H]1CN(Cc2ccoc2)[C@@H]2COC[C@H]12	2.929	-	25.09	2.941
CN(C)S(=O)(=O)CCCN1CCCC1c1noc(C2CC2)n1 (centres undefined)	-7.679	-22.24	-15.2	6.286
CCOC1COC2(CCN(Cc3ccc(C)cc3)CC2)C1 (centres undefined)	-6.25	-	-23.53	2.913
Cc1ccnc(N2Cc3cnn(Cc4ccc(F)cc4)c3C2)n1	-2.183	-22.89	-20.67	-3.352
Cc1nc(NC2CCOCC2)cc(C2CCN2S(C)(=O)=O)n1 (centres undefined)	-0.3906	-7.9	6.292	-15.71
Cc1ccc(O)c(CNCC2CCCN2c2cccnn2)n1 (centres undefined)	-3.955	24.98	-7.429	4.142
COCC(=O)NC(c1ccc(Cl)cc1)C(F)(F)F (centres undefined)	0.9372	-11.2	-11.28	-4.04
[H][C@]12CCN(C(=O)COC)[C@@]1([H])CC[C@H](COCC1CCOCC1)O2	-	-13.38	-	-
CC(=O)N1CCCn2nc(CNS(=O)(=O)c3cc(C)cs3)cc2C1	0.08353	-22.87	-5.779	4.132
Cc1nonc1OCCNC(=O)CCCc1ccc(Cl)cc1	1.223	-13.76	-1.401	4.124
O=C(O)C(F)(F)F.[H][C@@]12CCN(Cc3nccs3)[C@]1([H])CC[C@H](C(=O)NCc1ccco1)O2	-	-4.08	-	-
Cc1cc(C)c2c(NCC3(O)CCCCC3)ncnc2n1	1.449	-4.66	5.667	8.8
COC[C@@H]1CC[C@H]2[C@H](CCN2C(=O)c2ccncc2F)O1	3.688	-	-9.488	-2.542
O=C(C1CCN(c2ccnc3ccc(Br)cc23)CC1)N1CCOCC1	6.48	4.209	-22.31	-5.172
Cc1nc(N2CCCC2C(=O)NCc2ccsc2)nc2ccccc12 (centres undefined)	0.8704	21.74	-31.12	0.5435
Cc1cc(C)n(CC(=O)N2CCC(c3ccn4nccc4n3)CC2)n1	14.71	-3.211	9.446	2
Cc1cnn(CC(C)NCc2ccc(OCc3ccncc3)cc2)c1 (centres undefined)	-3.216	-10.93	-6.454	7.143
CC(Cn1cccn1)NC(=O)NCCc1cccnc1 (centres undefined)	-5.372	40.44	-18.16	3.509
O=C(Cc1ccc2c(c1)CCO2)N1CCCC1c1noc(C2CC2)n1 (centres undefined)	20.49	-9.912	-15.38	3.725
CSc1ccccc1CC1CCCS(=O)(=O)C1 (centres undefined)	-3.565	11.02	-6.499	1.604
Cc1noc(CCCC(=O)NC(C)c2ccccn2)n1 (centres undefined)	-0.1572	7.981	-	-1.141
CC(=O)N1CCN(C(=O)NCc2ccccc2Cn2cncn2)CC1	-0.5485	6.142	-25.19	6.154
O=C(c1c[nH]c2ncccc12)N(Cc1ccco1)C1CCCC1	4.259	12.57	-56.6	2.762
O=C(NCCCN1CCc2ccccc2C1)c1cccnc1O	1.267	26.46	-17.05	-1.887
CCCn1nccc1C(=O)Nc1nc(C)c(C)s1	2.083	-36.57	-15.57	5.699
CN1CCC(c2nnc(CN3CCC(O)CC3)n2C)CC1	-3.35	13.07	-2.794	7.438
CC(=O)N1CCCN(C(=O)NCCNc2ccccn2)CC1	-3.58	6.555	-16.21	3.79
COCCN(C)C[C@@H]1CN(C(=O)c2c(F)ccc(OC)c2F)C[C@@H]1CO	-2.155	-12.51	9.454	-10.2
COc1ccc(C2CCCN2C(=O)NCCCn2cccn2)cc1 (centres undefined)	0.3621	9.048	-16.15	8.333
CC(C)COCCC(=O)Nc1c(-c2ccc(F)cc2)ncn1C	4.686	4.343	-	6.061
Cc1ccccc1C(=O)N1CCC2(CCCN2CCN(C)C)CC1.O=C(O)C(F)(F)F.O=C(O)C(F)(F)F	-	11.69	-	-
Cc1noc(Cl)c1CC(=O)N1CCCC(n2cccn2)C1 (centres undefined)	3.801	18.7	-16.92	2.273
OC(c1ccccc1)C1CCN(Cc2csc(-c3ncccn3)n2)CC1 (centres undefined)	1.548	36.78	-18.65	3.79
Cc1cc(C)c(S(N)(=O)=O)cc1C(=O)NCC1Cc2ccccc2O1 (centres undefined)	-1.331	-20.66	-0.2536	8.247
Fc1ccc(CN2CCn3cc(Cn4cccn4)nc3C2)cc1.O=C(O)C(F)(F)F	-	11.02	-	-
O=C(O)C(F)(F)F.c1cncc(C2CC3(CCN(c4cnccn4)CC3)c3ccccc32)c1 (centres undefined)	-	7.106	-	-
O=C(Nc1cc(C(F)(F)F)ccc1Cl)c1ccc(N2CCOCC2)nn1	1.201	-3.574	9.07	1.111
CCCN(CC1COc2ccccc2O1)C(=O)c1ncoc1CC (centres undefined)	0.2649	20.75	-0.496	-1.807
CCCC(=O)N1CCC([C@@H]2C[C@H](C(F)(F)F)n3nc(C)cc3N2)CC1	-4	1.471 & 18.71	10.05	5.224

Some entries from above, unchanged:

- COCC(=O)NC(c1ccc(Cl)cc1)C(F)(F)F (centres undefined) : A: 0.9372%; B: -11.2%; C: -11.28%; D: -4.04%
- COCCN(C)C[C@@H]1CN(C(=O)c2c(F)ccc(OC)c2F)C[C@@H]1CO : A: -2.155%; B: -12.51%; C: 9.454%; D: -10.2%
- O=C(C1CCN(c2ccnc3ccc(Br)cc23)CC1)N1CCOCC1 : A: 6.48%; B: 4.209%; C: -22.31%; D: -5.172%